From ChEMBL document CHEMBL3988442, “University of Dundee, Small-Polar-MMV Screening Library” (2021).

By UniProt entry, the sequences of proteins in these tests, tags left out. Residues count along the entry.
UniProt P9WFT3, whole entry: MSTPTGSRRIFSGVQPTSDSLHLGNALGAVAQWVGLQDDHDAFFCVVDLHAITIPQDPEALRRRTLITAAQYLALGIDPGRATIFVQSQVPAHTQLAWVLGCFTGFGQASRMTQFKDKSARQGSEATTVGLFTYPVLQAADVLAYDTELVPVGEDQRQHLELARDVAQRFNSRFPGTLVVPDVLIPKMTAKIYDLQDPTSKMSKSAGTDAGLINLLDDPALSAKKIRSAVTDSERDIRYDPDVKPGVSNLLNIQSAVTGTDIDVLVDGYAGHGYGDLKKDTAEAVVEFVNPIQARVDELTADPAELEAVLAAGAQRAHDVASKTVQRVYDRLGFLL
UniProt Q4DA54, 1-478: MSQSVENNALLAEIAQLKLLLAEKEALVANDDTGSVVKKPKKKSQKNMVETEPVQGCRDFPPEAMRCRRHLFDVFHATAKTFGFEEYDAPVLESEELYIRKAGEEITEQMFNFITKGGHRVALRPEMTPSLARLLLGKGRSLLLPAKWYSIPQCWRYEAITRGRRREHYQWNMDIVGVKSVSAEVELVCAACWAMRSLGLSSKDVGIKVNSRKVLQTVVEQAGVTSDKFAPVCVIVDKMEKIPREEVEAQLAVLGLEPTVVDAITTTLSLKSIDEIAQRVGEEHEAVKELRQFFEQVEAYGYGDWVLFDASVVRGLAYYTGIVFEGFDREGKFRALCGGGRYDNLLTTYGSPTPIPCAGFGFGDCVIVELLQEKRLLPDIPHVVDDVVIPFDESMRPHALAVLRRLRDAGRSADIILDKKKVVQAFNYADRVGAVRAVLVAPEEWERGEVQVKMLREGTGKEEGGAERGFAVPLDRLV
UniProt Q8IDJ8, 1-583: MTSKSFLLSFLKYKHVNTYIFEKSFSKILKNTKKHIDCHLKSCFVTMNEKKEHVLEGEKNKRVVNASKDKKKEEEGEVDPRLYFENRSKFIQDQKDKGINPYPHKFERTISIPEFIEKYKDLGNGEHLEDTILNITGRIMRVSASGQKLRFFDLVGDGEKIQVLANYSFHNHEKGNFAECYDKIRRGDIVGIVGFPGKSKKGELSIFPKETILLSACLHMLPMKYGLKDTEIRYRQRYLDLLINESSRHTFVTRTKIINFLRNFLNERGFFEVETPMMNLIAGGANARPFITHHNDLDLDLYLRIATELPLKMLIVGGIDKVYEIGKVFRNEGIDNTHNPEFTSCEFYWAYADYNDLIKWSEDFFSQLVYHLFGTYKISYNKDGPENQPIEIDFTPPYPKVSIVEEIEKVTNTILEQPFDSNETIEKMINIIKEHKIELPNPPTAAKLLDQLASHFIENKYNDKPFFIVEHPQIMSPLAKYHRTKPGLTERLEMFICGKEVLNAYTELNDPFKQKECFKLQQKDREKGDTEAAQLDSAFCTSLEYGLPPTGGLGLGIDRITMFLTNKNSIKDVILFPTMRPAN
UniProt P9WNZ1, whole entry: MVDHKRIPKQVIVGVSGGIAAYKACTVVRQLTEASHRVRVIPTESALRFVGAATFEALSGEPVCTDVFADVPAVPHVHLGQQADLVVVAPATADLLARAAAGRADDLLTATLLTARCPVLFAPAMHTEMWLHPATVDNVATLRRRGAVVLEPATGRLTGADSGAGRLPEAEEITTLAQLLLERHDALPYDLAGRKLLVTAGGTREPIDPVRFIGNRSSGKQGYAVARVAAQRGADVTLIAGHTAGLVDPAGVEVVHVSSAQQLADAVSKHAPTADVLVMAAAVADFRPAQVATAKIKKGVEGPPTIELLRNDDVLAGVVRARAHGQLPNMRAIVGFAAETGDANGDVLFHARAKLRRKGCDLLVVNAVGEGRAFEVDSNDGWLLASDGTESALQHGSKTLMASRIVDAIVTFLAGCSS
UniProt I6X8D2, whole entry: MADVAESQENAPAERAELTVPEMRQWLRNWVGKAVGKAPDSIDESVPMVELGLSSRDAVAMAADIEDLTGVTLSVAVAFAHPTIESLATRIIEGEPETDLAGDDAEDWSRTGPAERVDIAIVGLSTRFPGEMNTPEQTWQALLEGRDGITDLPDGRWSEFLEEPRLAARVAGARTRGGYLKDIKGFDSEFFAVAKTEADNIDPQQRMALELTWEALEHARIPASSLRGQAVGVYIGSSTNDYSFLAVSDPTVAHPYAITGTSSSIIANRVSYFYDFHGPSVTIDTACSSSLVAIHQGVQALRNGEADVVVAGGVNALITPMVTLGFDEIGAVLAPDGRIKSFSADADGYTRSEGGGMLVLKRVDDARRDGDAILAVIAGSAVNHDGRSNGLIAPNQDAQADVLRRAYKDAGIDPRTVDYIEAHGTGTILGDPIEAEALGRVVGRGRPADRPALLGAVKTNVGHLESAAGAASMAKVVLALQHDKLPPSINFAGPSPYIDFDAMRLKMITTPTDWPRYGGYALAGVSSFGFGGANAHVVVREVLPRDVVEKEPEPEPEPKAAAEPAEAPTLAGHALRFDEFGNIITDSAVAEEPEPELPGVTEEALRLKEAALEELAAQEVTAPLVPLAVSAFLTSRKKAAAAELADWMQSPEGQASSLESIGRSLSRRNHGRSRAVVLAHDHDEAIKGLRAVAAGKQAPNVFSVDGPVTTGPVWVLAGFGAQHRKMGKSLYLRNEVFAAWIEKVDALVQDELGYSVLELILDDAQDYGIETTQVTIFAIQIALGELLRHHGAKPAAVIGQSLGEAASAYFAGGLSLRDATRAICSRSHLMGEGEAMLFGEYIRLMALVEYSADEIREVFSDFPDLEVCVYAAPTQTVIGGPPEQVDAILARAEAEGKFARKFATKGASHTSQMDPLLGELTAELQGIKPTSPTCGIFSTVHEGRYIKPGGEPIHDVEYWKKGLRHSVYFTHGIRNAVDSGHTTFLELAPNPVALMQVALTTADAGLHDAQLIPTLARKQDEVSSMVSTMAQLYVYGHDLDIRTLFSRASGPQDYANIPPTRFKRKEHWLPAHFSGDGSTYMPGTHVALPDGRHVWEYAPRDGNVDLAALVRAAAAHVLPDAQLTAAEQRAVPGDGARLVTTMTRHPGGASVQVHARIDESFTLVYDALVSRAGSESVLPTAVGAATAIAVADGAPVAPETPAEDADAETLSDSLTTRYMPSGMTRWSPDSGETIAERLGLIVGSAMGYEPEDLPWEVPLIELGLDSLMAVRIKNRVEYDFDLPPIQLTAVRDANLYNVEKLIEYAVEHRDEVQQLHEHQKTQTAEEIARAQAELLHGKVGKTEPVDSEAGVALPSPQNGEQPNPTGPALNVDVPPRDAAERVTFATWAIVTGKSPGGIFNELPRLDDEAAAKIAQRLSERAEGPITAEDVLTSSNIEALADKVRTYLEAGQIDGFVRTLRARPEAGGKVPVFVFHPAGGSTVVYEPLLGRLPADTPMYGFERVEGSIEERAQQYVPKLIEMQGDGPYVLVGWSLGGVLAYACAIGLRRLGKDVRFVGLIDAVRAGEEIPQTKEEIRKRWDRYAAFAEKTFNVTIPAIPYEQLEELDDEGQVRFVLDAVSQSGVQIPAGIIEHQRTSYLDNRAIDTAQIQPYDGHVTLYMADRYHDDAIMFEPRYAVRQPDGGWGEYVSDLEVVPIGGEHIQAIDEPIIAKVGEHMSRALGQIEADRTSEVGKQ

MtTrpRS: 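Tryptophan-tRNA ligase, Mycobacterium tuberculosis (UniProt P9WFT3). Enzyme assay of tryptophanyl-tRNA synthetase; the read-out is not stated. Tested at 10 µM. Direction is not recorded; retested compounds ran higher, which suggests that high means inhibition. Of about 65,000 compounds tested this way, about 64 (0.098%) reached 50% or more in at least one test.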
TcHisRS: 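Histidine-tRNA ligase, Trypanosoma cruzi CL Brener (UniProt Q4DA54). Enzyme assay of histidyl-tRNA synthetase; the read-out is not stated. Tested at 30 µM. Direction is inferred from retests: higher values go with stronger inhibition. About 69,000 compounds were tested under these conditions; 0.045% (about 31) showed 50% or more at least once.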
PfKRS1: 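Enzyme assay of the cytosolic lysyl-tRNA synthetase in 384-well plates, read by luminescence. Target: Lysine-tRNA ligase, Plasmodium falciparum 3D7 (UniProt Q8IDJ8). Compounds at 30 µM. Higher reads as stronger inhibition, judged from the few compounds that gave an IC50. Size under these conditions: about 69,000 compounds, about 49 of them at 50% or above in at least one test.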
CoaBC: 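Coenzyme A biosynthesis protein CoaBC, Mycobacterium tuberculosis (UniProt P9WNZ1). Enzyme assay of CoaBC with a phosphate dye (Biomol Green) read at 650 nm. Compounds at 30 µM. Higher reads as stronger inhibition, judged from the few compounds that gave an IC50. Most strong results did not repeat in a second test. Size under these conditions: about 67,000 compounds, about 40 of them at 50% or above in at least one test.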
Pks13 thioesterase: 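Enzyme assay of the thioesterase domain of polyketide synthase 13; the read-out is not stated. Target: Polyketide synthase Pks13, Mycobacterium tuberculosis (UniProt I6X8D2). Concentration: 30 µM. Higher reads as stronger inhibition (inferred from which compounds were picked for retests). Of about 67,000 compounds tested this way, about 300 (0.46%) reached 50% or more in at least one test.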
Leishmania in macrophages: 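Cell assay of Leishmania donovani living inside macrophages; the read-out is not stated. Concentration: 30 µM. Higher reads as stronger inhibition (inferred: compounds with an IC50 in retests scored well above the rest). About 69,000 compounds were tested under these conditions; 1.5% (about 1,000) showed 50% or more at least once.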

Results are given as percent effect.
The controls that fix the scale are not given in the record; negative values are as filed.
The compounds are a random part of those screened.
Two or more numbers in one place are separate tests of the same structure; such repeats can differ widely.
A dash means the value is not listed here; it may have been measured.

| # | SMILES | MtTrpRS | TcHisRS | PfKRS1 | CoaBC | Pks13 thioesterase | Leishmania in macrophages |
|---|---|---|---|---|---|---|---|
| 1 | `CNc1cc(C(=O)N2CCC3(CC2)Nc2ccccc2NC3=O)ccn1` | -3.116 | 2.513 | 5.356 | 0.1206 | - | 9.631 |
| 2 | `CC(C)OCCCN(Cc1ccncc1)Cc1cc(F)cc(F)c1.Cl` | - | - | - | - | - | -21 & 22.96 |
| 3 | `Cc1noc(C)c1CN(C)C(=O)NCCOc1ccc(F)cc1F` | -0.6369 | 6.383 | 3.011 | -1.606 | -11.43 | -13.8 |
| 4 | `Cc1cn[nH]c1C1CCCN1Cc1ccc(F)c(F)c1` (stereo unspecified) | -7.681 | 16.48 | -1.339 | -2.67 | 12.84 | 14.66 |
| 5 | `O=C(O)C(F)(F)F.[H][C@@]12CCC(=O)N(c3ccccc3)[C@]1([H])CCN2C(=O)c1cccc(C)n1` | - | - | - | - | - | 11.14 |
| 6 | `Cc1nnc(N2C[C@@H](OCCCn3cccn3)[C@H]3OCCC[C@H]32)s1` | 1.069 | 4.132 | 5.454 | 16.56 | -23.37 | - |
| 7 | `O=C(CN1CCSC2(CCCCC2)C1)NCC(F)(F)F` | 0.4515 | 0 | 2.929 | 8.293 | - | 26.43 |
| 8 | `CC(O)c1cn(Cc2cccc(C(F)(F)F)c2)nn1` (stereo unspecified) | -3.002 | 8.333 | -0.3789 | -4.603 | -13.54 | 12.05 |
| 9 | `COCCN(Cc1ccoc1)S(=O)(=O)c1cccc(C(F)(F)F)c1` | 2.079 | 10.1 | -4.956 | 4.453 | 9.972 | 25.45 |
| 10 | `Cc1cc(C(=O)N[C@H]2CN(CCO)C[C@@H]2C2CC2)sc1C` | -0.9054 | 5.759 | 1.029 | -1.852 | -25.06 | 16.8 |
| 11 | `Cc1c(C)n(Cc2ccncc2)c2nc3c(c(N)c12)CCCCCC3` | 2.731 | 6.433 | 3.855 | 8.081 | -17.33 | 6.52 |
| 12 | `CN(Cc1nccn1C)C(=O)C1COCC(=O)N1Cc1ccccc1` (stereo unspecified) | 8.272 | 10.71 | 4.514 | 4.412 | -1.686 | -10.21 |
| 13 | `Fc1ccc(C(CNc2ccncn2)N2CCCC2)cc1` (stereo unspecified) | -2.265 | 2.97 | -3.158 | -1.928 | -8.537 | 64.07 |
| 14 | `Cn1cc(C2(C)CN(Cc3ccc(Cl)c(F)c3)CCO2)cn1` (stereo unspecified) | -0.07788 | 3.448 | 1.65 | 4.747 | -13.68 | 18.3 |
| 15 | `O=C(O)C(F)(F)F.[H][C@]12CCN(Cc3csc(C)n3)[C@@]1([H])C[C@H](C(=O)N1CCOCC1)O2` | - | - | - | - | - | 13.28 |
| 16 | `COCCOc1ccc(NCc2cccc3cn[nH]c23)cn1` | 8.066 | 2.062 | -0.06053 | 2.2 | 15.12 | 22.19 |
| 17 | `COc1ccc(-n2cc(CCO)cn2)cc1C(N)=O` | 1.971 | 5.603 | 4.251 | 4.183 | -29.94 | 3.969 |
| 18 | `c1coc(CN2CCn3c(COCC4CC4)nnc3C2)c1` | 5.124 | 12.64 | 5.84 | 5.533 | 5.465 | - |
| 19 | `CN(C)C(=O)NCc1cc(=O)n2c(n1)CN(Cc1ccoc1)CCC2.O=C(O)C(F)(F)F` | - | - | - | - | - | 9.23 |
| 20 | `CC(C)NC(=O)c1nnn(-c2cccc(C(F)(F)F)c2)c1C1CC1` | 4.929 | -10.57 | 4.89 | 12.66 | -19.05 | 17.46 |
| 21 | `Cn1cnnc1S(=O)(=O)C1CCN(S(=O)(=O)c2c(Cl)cccc2Cl)CC1` | -0.07128 | 4.959 | 4.486 | -9.168 | -7.79 | 10.52 |
| 22 | `COCCN(CC1CCCN(C2Cc3ccccc3C2)C1)C(=O)CSC` (stereo unspecified) | -1.487 | 3.704 | 5.605 | 7.739 | -9.709 | 9.85 |
| 23 | `c1coc(CN2CCO[C@H]3[C@H](OCC4CCCC4)CC[C@@H]32)c1` | - | 8.38 | -0.2807 | -4.242 | -19.86 | - |
| 24 | `CNC(=O)c1cc2ccccc2n1C` | - | -2.273 | 1.859 | -2.184 | -31.28 | 32.27 |
| 25 | `Cl.Cl.NCC(=O)N1CCCC(c2cncc(Nc3ncccn3)n2)C1` (stereo unspecified) | - | - | - | - | - | 11.38 |
| 26 | `O=C(N[C@@H]1CN[C@H]2CCCO[C@H]21)c1cccnc1` | 1.652 | -0.8772 | 0.5312 | 1.603 | -10.96 | - |
| 27 | `CC(C)c1cccc(-n2cc(O)c(C(=O)NCCC(=O)N(C)C)n2)c1` | 2.469 | 14.29 | 4.537 | 3.186 | -9.829 | 16.71 |
| 28 | `CCN1CC2(CC1=O)CN(Cc1cnn(C)c1)CCN(C(=O)C(C)C)C2` (stereo unspecified) | -0.1876 | 0.5348 | 8.105 | 1.449 | -5.575 | - |
| 29 | `Cc1cc(=O)[nH]c(NC2CCN(S(=O)(=O)c3ccccc3)CC2)n1` | -5.028 | 0.8571 | -0.8848 | -1.598 | 3.27 | 17.7 |
| 30 | `O=C(NCc1ccccn1)[C@]12COC[C@H]1CN(Cc1ccsc1)C2` | -0.09074 | 4.673 | 3.912 | -14.32 | -7.51 | - |
| 31 | `CC(=O)Nc1ccc(S(=O)(=O)NC(=O)CCC2CCCO2)cc1` (stereo unspecified) | 4.617 | 1.504 | -5.322 | -0.5931 | - | -7.804 |
| 32 | `O=C(c1ccco1)N1CCO[C@@H]2CN(CC3CC3)CC[C@@H]2C1` | 7.819 | 8.824 | 6.225 | 2.25 | -47.79 | - |
| 33 | `Cc1ccc(NC(=O)NCC2(O)CCCC2)cc1C` | 2.227 | 9.135 | 2.603 | 1.399 | -4.076 | 10.44 |
| 34 | `Cn1c(N)nnc1SCc1c(F)cccc1Br` | 1.816 | 1.818 | -4.121 | -0.2433 | -15.92 | 15.6 |
| 35 | `CCC(CC)CN1C[C@@H]2OCCN(Cc3cnn(C)c3)[C@@H]2C1` | -10.45 | 7.609 | 2.484 | 6.075 | -3.42 | - |
| 36 | `CCCNC(=O)NCc1nc(C)c(C)o1` | -0.2018 | 5.435 | 1.306 | -9.476 | 6.149 | -23.99 |
| 37 | `O=C(O)C(F)(F)F.[H][C@]12CCN(S(=O)(=O)c3cccs3)C[C@@]1([H])OCCN(C)C2` | - | - | - | - | - | 5.948 |
| 38 | `O=C(O)[C@]12CCCN(CC3CCOC3)C[C@H]1CN(c1ncccn1)C2` (stereo partly specified) | - | -2.21 | 5.213 | 3.465 | -3.667 | - |
| 39 | `Cc1ccsc1C(=O)NC1CCN(c2cnn(C)c2)C1=O` (stereo unspecified) | 15.74 | -3.488 | 1.235 | 17.17 | 0.4772 | -21.88 |
| 40 | `Cc1cnn(CC2CCCN2Cc2coc(-c3cccc(F)c3)n2)c1` (stereo unspecified) | 4.37 | 10.43 | -0.1901 | 4.225 | -14.79 | -65.96 |
| 41 | `Cc1cc(C2CCCN2C(=O)NCc2cccnc2OC(C)C)on1` (stereo unspecified) | -3.194 | 10.34 | 2.597 | -0.123 | -21.4 | 29.26 |
| 42 | `Cc1cccc(C)c1NC(=O)NCC1CCCN(C2CCOCC2)C1` (stereo unspecified) | -1.782 | 3.478 | 3.793 | -5.951 | -8.939 | 13.65 |
| 43 | `CNc1nc(C(=O)N2CCN(c3ccc(Cl)c(Cl)c3)CC2)cs1` | 0.1566 | 11.44 | 7.684 | -1.481 | -0.4955 | 18.3 |
| 44 | `CC(C)(C)C(=O)NS(=O)(=O)c1ccc(C#N)c(C(F)(F)F)c1` | 0.5939 | 9.135 | 1.601 | 4.962 | 7.878 | 34.48 |
| 45 | `Cc1nc(CCNC(C)c2ccc3c(c2)OCCCO3)cs1` (stereo unspecified) | -1.905 | 2.212 | 0.8521 | 8.178 | -10.6 | 34.74 |
| 46 | `CN(C)C(=O)C1CCC2(CCN(Cc3cnn(C)c3)CC2)C1` (stereo unspecified) | -6.132 | 6.897 | 2.624 | 13.24 | -0.9821 | - |
| 47 | `Cc1ccccc1-n1nc(C)c(CN(C)C(C)Cc2ccccn2)c1C` (stereo unspecified) | -5.277 | 1.515 | 3.948 | 1.233 | 30.62 | - |
| 48 | `[H][C@]12CCN(C(=O)c3cc(C)on3)C[C@@]1([H])[C@H](CN1CCCC1)OC2` | - | - | - | - | - | -11.13 |

For reference, 3 entries once more:

SMILES	MtTrpRS	TcHisRS	PfKRS1	CoaBC	Pks13 thioesterase	Leishmania in macrophages
CC(O)c1cn(Cc2cccc(C(F)(F)F)c2)nn1 (stereo unspecified)	-3.002	8.333	-0.3789	-4.603	-13.54	12.05
CN(C)C(=O)NCc1cc(=O)n2c(n1)CN(Cc1ccoc1)CCC2.O=C(O)C(F)(F)F	-	-	-	-	-	9.23
Cl.Cl.NCC(=O)N1CCCC(c2cncc(Nc3ncccn3)n2)C1 (stereo unspecified)	-	-	-	-	-	11.38